Common to all, as to experiment: log2 fold change, soluble protein after heating vs DMSO (PISA); higher = thermal stabilisation; K562 lysate, 10 uM; active = over 0.2 and 3.5 SD of the protein, either way, in both replicates (recomputed)
Compound in assay [1]: NCC(=O)Nc1ccc(-n2nc(C(F)(F)F)cc2-c2ccc3c(ccc4ccccc43)c2)cc1
The procedure, abridged:
(§1)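 Values give the log-two fold change in thermal stability against solvent controls, from duplicates. Crude K562 extract at 1 mg/mL protein, made by dounce homogenisation in PBS pH 7.4 with 1 mM MgCl2, was treated with 10 μM compound for 30 min. After 3 min heating across 48°C-58°C, aliquots were pooled, adjusted to 0.5% NP-40 at 4°C and centrifuged at 21,000xg for 90 min. The supernatant was measured by TMTpro 16plex LC-MS/MS with channel sums equalised.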

Protein sequences, listed by entry. Tags and fused reporters are not part of them. Lines headed by an entry give the natural chain unless they say otherwise; changes in a name come on top.
UniProt P17544: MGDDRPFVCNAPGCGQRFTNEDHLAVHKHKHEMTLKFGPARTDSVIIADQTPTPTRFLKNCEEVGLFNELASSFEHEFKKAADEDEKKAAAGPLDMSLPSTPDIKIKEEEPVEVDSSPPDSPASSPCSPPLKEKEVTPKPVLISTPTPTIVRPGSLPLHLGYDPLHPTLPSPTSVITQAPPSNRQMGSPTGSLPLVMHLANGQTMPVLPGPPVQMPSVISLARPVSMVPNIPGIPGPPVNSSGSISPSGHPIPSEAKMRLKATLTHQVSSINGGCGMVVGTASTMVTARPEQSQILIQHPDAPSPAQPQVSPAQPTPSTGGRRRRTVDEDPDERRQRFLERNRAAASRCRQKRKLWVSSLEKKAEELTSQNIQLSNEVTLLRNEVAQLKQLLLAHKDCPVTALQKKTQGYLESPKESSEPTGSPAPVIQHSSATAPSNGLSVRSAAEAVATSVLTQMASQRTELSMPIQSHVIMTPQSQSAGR
UniProt Q9Y679: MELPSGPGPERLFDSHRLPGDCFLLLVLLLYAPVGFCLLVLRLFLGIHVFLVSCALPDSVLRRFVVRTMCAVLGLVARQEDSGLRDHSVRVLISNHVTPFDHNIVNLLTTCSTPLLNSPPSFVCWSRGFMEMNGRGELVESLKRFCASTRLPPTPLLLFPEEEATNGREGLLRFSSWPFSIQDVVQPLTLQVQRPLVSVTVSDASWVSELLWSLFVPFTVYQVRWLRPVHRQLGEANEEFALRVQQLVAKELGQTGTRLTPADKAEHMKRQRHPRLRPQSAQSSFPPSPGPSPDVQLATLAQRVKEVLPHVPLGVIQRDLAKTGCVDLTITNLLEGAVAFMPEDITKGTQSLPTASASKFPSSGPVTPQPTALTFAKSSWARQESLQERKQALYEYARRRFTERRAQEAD
UniProt Q9NY97: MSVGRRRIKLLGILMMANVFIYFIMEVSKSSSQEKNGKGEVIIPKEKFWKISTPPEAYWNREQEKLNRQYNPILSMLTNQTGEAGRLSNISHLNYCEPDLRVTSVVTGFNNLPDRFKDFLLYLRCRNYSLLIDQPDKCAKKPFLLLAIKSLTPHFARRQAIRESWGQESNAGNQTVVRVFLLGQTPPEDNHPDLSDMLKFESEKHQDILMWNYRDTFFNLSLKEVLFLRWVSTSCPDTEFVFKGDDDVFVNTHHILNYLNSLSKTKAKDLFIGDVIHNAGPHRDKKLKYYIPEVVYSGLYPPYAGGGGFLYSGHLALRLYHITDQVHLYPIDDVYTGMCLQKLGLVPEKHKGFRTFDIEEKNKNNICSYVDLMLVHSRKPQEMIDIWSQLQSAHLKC
UniProt Q8NBF6: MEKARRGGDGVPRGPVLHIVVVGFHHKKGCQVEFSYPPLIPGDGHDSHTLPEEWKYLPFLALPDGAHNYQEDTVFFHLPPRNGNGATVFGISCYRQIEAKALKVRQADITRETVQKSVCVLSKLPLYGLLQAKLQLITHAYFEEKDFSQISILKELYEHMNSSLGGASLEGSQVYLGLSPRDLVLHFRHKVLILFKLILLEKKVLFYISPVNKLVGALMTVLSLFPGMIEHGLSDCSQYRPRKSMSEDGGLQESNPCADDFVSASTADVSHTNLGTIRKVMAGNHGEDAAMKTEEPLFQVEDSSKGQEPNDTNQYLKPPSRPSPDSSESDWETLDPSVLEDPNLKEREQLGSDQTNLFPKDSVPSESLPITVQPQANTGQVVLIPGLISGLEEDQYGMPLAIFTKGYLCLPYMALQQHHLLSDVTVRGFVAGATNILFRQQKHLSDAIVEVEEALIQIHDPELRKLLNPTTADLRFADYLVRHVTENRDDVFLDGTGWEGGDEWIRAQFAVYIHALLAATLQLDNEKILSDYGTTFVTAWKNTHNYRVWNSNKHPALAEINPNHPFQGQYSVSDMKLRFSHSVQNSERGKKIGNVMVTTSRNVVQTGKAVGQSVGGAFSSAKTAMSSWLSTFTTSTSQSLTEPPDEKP
UniProt Q06055: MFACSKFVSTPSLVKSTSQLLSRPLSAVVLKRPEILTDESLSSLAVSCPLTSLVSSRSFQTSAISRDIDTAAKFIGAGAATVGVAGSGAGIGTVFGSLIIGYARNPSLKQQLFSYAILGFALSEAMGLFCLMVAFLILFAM
UniProt Q9BZE9, whole entry, looked up: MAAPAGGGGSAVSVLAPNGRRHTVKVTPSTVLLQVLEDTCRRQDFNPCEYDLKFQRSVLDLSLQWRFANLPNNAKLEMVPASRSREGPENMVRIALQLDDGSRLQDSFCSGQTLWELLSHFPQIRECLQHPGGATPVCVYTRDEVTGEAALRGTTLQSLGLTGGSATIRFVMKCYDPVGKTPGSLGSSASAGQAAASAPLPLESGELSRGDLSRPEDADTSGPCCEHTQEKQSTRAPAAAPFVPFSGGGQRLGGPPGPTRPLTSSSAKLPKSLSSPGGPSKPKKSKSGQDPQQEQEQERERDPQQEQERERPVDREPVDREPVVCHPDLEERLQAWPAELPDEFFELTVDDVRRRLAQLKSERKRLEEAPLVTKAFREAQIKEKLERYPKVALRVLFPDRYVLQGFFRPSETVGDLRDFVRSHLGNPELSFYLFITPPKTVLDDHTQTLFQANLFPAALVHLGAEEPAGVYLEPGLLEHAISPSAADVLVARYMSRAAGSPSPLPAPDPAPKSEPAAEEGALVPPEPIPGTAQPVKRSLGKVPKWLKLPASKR
UniProt P56385: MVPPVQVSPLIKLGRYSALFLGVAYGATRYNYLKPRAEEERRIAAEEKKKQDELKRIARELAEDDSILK
UniProt P61769, whole entry, looked up: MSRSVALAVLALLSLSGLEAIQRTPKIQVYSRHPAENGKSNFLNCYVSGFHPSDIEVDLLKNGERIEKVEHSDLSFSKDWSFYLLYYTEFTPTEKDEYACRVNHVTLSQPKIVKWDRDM
UniProt Q8N3C0, whole entry, looked up: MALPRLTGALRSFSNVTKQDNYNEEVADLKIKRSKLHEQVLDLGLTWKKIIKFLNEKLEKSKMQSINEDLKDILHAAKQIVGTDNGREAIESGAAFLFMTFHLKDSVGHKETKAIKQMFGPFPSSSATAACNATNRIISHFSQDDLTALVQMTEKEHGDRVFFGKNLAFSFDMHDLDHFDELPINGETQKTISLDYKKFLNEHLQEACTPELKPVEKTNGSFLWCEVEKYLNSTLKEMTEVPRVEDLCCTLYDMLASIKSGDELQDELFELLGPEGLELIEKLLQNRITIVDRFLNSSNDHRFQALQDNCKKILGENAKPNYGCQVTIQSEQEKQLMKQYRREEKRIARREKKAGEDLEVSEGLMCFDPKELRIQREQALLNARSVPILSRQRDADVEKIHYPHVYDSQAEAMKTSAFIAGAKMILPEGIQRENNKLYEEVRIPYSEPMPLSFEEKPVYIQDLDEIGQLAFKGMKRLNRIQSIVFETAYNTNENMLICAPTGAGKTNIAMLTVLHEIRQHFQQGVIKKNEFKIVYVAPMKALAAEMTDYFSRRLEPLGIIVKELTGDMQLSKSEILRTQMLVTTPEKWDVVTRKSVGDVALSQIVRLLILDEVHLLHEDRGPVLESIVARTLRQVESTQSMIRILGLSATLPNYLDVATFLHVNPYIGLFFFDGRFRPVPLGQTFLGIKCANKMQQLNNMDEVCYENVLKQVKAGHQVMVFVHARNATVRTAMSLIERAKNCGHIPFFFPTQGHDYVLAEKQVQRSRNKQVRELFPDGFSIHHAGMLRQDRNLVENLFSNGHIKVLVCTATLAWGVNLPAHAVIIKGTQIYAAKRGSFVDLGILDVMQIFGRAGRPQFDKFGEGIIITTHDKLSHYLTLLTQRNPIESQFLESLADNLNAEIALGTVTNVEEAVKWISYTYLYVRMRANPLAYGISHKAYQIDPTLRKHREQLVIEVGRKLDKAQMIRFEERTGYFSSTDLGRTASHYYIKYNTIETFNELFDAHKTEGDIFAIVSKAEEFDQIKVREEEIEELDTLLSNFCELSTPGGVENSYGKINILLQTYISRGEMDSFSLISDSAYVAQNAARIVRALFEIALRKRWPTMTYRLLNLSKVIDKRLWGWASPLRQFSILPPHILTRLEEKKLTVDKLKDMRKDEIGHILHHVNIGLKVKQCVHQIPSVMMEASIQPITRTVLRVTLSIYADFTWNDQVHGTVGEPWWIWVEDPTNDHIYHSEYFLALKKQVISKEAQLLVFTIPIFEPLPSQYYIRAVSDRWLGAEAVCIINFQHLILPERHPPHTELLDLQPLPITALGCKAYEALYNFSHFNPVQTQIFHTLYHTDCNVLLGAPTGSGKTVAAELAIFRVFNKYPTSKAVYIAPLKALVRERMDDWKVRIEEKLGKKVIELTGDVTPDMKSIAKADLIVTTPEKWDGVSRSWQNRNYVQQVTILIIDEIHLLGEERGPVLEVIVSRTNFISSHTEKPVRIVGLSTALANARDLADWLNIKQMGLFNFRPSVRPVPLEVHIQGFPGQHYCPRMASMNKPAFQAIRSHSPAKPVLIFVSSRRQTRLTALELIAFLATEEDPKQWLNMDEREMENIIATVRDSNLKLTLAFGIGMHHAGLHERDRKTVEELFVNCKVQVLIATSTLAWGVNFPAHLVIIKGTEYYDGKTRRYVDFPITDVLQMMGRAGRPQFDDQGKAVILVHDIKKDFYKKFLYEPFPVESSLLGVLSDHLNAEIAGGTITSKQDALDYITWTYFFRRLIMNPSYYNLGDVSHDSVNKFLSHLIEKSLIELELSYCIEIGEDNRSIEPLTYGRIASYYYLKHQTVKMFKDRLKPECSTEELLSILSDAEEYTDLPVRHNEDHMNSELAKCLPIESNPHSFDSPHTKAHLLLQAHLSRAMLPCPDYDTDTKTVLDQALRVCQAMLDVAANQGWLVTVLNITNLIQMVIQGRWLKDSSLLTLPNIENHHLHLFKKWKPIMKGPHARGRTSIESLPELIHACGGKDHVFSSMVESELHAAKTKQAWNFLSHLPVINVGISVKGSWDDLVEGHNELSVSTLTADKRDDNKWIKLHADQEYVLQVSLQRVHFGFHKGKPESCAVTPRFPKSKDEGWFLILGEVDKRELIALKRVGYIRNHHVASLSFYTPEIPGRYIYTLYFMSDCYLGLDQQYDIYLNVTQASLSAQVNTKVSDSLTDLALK
UniProt O95260: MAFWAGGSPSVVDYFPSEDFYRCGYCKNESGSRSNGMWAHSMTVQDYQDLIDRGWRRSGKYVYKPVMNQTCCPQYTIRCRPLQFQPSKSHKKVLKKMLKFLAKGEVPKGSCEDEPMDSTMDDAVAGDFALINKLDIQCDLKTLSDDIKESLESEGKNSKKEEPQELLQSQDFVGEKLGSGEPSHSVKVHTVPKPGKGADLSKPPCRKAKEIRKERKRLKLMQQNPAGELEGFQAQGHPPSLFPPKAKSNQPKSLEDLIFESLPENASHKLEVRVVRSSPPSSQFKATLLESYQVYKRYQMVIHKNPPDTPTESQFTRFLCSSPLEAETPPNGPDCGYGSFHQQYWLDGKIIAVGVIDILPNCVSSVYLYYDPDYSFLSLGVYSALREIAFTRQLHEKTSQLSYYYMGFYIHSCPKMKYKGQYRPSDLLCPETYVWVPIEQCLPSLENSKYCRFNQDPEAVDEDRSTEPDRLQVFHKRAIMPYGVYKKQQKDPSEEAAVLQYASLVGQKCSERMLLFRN
UniProt Q7Z3C6: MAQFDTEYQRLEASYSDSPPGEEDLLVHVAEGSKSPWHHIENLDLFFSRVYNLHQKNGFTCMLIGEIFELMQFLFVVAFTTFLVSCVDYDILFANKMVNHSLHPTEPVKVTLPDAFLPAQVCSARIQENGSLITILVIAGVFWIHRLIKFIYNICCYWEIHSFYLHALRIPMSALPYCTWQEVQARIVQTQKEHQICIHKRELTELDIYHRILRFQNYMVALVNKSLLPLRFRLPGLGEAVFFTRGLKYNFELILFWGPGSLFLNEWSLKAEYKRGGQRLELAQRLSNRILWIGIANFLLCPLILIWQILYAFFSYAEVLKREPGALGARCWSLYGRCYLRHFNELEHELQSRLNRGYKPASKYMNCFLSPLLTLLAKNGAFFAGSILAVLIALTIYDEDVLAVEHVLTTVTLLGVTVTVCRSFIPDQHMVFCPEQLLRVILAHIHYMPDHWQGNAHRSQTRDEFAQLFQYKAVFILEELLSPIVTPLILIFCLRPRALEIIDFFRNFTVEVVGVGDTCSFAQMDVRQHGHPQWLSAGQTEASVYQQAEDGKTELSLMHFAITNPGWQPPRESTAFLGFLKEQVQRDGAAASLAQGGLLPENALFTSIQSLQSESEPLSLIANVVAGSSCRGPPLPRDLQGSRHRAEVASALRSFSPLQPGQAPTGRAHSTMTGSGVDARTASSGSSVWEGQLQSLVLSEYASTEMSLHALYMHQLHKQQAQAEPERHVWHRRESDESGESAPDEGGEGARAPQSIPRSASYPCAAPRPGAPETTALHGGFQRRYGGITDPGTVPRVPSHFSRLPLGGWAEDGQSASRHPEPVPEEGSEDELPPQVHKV
UniProt O94817, whole entry, looked up: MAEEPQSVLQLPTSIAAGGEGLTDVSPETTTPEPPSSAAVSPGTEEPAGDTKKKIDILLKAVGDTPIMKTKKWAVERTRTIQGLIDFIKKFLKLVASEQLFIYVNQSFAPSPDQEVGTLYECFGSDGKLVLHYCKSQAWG

Compound in the next assay: O=C(CCCCCCC(=O)Nc1ccccc1)NO [vorinostat]
The procedure, abridged: as §1

Compound in another assay: O=C(O)c1ccc2c(c1)nc(Nc1cccc(Cl)c1)c1ccncc12 [silmitasertib]
The procedure, abridged: as §1

Compound in assay [2]: O=C1NC(=O)C(c2cnc3ccccn23)=C1c1cn2c3c(cc(F)cc13)CN(C(=O)N1CCCCC1)CC2
The procedure, abridged: as §1

Compound in a further assay: c1cn2cc(-c3ccc4cn[nH]c4c3)nc(Nc3ccc(N4CCOCC4)cc3)c2n1 [entospletinib]
The procedure, abridged: as §1

This is one part of the list.

Turning to ATF7 isoform 6 (UniProt P17544), the log2 fold change in assay [1] was inactive: 0.072; with vorinostat, inactive: 0.144; with silmitasertib, inactive: 0.02; in assay [2], inactive: -0.064; with entospletinib it was inactive: -0.124.
In the case of AUP1 (UniProt Q9Y679), the log2 fold change in assay [1] is inactive: -0.043; with vorinostat, inactive: -0.16; in the assay with silmitasertib, inactive: 0.059; in assay [2], inactive: 0.006; with entospletinib, inactive: 0.042.
Taken in the same sequence, the figures for B3GNT2 (UniProt Q9NY97) were inactive: 0.031, inactive: 0.182, inactive: 0.015, inactive: 0.012 and inactive: 0.034.
Taken in the same sequence, the figures for ATG2B (UniProt Q96BY7) were inactive: 0.016, inactive: 0.032, inactive: 0.009, inactive: 0.022 and inactive: 0.008.
The corresponding values for AURKA (UniProt O14965) are inactive: -0.008, inactive: -0.236, inactive: 0.135, inactive: 0.1 and inactive: 0.167.
For ATP2B1 isoform 1 (UniProt P20020), the log2 fold change in assay [1] is inactive: 0.01; with vorinostat, inactive: 0.008; in the assay with silmitasertib, inactive: -0.004; in assay [2], inactive: -0.025; with entospletinib, inactive: -0.028.
The corresponding values for ASRGL1 (UniProt Q7L266) are inactive: 0.037, inactive: 0.088, inactive: 0.011, inactive: 0.007 and inactive: -0.042.
Taken in the same sequence, the figures for ATP6V1H (UniProt Q9UI12) were inactive: 0.034, inactive: -0.131, inactive: 0.031, inactive: -0.018 and inactive: 0.02.
The corresponding values for ASNS (UniProt P08243) are inactive: 0.006, active: -0.373, inactive: -0.01, inactive: -0.008 and inactive: 0.029.
Take AVL9 (UniProt Q8NBF6): the log2 fold change in assay [1] is inactive: 0.022; with vorinostat, inactive: 0.082; in the assay with silmitasertib it was inactive: -0.014; in assay [2], inactive: -0.028; in the assay with entospletinib, inactive: -0.001.
The corresponding values for ASNA1 (UniProt O43681) are inactive: -0.043, inactive: 0.034, inactive: 0.021, inactive: -0.014 and inactive: -0.001.
The corresponding values for ATP5F1B (UniProt P06576) are inactive: 0.006, inactive: 0.124, inactive: -0.006, inactive: -0.003 and inactive: -0.019.
The corresponding values for ATG5 (UniProt Q9H1Y0) are inactive: 0.007, inactive: 0.005, inactive: 0.005, inactive: 0.005 and inactive: 0.025.
On to ATP5MC2 isoform 2 (UniProt Q06055), for which the log2 fold change in assay [1] was inactive: 0.015; with vorinostat, inactive: 0.165; in the assay with silmitasertib, inactive: -0.011; in assay [2] it was inactive: 0.052; with entospletinib, inactive: 0.009.
On to AVEN (UniProt Q9NQS1), for which the log2 fold change in assay [1] is inactive: -0.146; with vorinostat, active: -0.738; in the assay with silmitasertib, inactive: -0.009; in assay [2], inactive: 0.092; with entospletinib, inactive: -0.161.
Taken in the same sequence, the figures for ASPSCR1 (UniProt Q9BZE9) were inactive: -0.021, inactive: -0.073, inactive: -0.008, inactive: 0.012 and inactive: -0.014.
Taken in the same sequence, the figures for ATP5ME (UniProt P56385) were inactive: -0.01, inactive: 0.128, inactive: 0.035, inactive: -0.031 and inactive: -0.063.
Taken in the same sequence, the figures for ATP1A4 (UniProt Q13733) were inactive: -0.014, inactive: 0.052, inactive: 0.024, inactive: -0.028 and inactive: 0.008.
AZGP1 (UniProt P25311): the log2 fold change in assay [1] was inactive: 0.073; in the assay with vorinostat, inactive: 0.155; with silmitasertib it was inactive: -0.449; in assay [2], inactive: 0.328; with entospletinib, inactive: -0.066.
Taken in the same sequence, the figures for B2M (UniProt P61769) were inactive: -0.051, inactive: 0.181, inactive: -0.032, inactive: 0.016 and inactive: 0.054.
With ASCC3 (UniProt Q8N3C0), the log2 fold change in assay [1] was inactive: 0.094; with vorinostat, inactive: -0.127; with silmitasertib, inactive: 0.031; in assay [2], inactive: 0.016; in the assay with entospletinib, inactive: -0.006.
Taken in the same sequence, the figures for ATE1 isoform 2 (UniProt O95260) were inactive: -0.068, active: -0.444, inactive: 0.041, inactive: -0.01 and inactive: -0.008.
The corresponding values for ATG9A (UniProt Q7Z3C6) are inactive: -0.026, inactive: 0.013, inactive: 0.034, inactive: 0.054 and inactive: 0.006.
Taken in the same sequence, the figures for ATG12 (UniProt O94817) were inactive: -0.021, inactive: -0.13, inactive: 0.009, inactive: 0.02 and inactive: -0.02.

Source of the values: the supplement of paper PMC10849652.
